Laboratory results reported in publication PMC10097714.
Construct, isoform or probe ends are uncertain for at least one entry. For some assays here: A negative result means that nothing was seen under these conditions. For some assays here: At least one verdict was read from the data and is not stated in words by the source.

The chains behind the UniProt entries cited, without tags or fusion partners. Where a name states a change or a piece, a line headed by the entry shows the natural chain unless it says otherwise.
UniProt Q13148: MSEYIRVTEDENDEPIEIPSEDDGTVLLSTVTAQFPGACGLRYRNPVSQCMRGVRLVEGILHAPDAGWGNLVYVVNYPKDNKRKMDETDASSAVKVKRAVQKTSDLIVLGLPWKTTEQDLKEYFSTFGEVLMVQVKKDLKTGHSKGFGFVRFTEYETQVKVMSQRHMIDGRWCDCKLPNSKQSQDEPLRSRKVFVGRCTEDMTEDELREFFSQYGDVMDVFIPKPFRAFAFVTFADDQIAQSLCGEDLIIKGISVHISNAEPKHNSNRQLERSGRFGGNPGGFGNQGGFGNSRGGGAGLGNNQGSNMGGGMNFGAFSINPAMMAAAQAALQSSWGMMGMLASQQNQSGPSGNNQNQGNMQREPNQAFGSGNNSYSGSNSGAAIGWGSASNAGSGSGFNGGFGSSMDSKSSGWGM
UniProt P08515, whole entry: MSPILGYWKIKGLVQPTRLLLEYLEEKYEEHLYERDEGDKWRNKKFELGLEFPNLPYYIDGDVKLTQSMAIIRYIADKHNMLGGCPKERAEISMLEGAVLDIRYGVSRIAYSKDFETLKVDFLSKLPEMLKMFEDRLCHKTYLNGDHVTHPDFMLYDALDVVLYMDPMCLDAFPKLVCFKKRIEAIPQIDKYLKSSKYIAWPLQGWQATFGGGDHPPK

Legend:
GST-GR WT (human) [1] = target: GST-GR WT (human) (UniProt Q13148); experiment: SPR; conditions: 50 nM protein; 3' DNA dA16 tail on RNA; SPR: 20 mM PIPES pH 6.8, 12 mM KCl, 0.8 mM MgCl2, 150 mM NaCl, 0.05% Tween-20, 25 C; recombinant protein; protein details: GST
GST-GR WT (human) [2] = target: GST-GR WT (human) (UniProt Q13148); experiment: CD; conditions: 1 uM each, no change of 265 nm positive peak; recombinant protein; protein details: GST
GST-GR WT (human) [3] = target: GST-GR WT (human) (UniProt Q13148); experiment: UV cross-linking, SDS-PAGE; conditions: 1-4 pmol protein; UV cross-linking: EMSA buffer without poly-dI-dC; recombinant protein; protein details: GST; label: 5' Cy3, 3' Alexa Fluor 647
GST-GR WT (human) [4] = target: GST-GR WT (human) (UniProt Q13148); experiment: EMSA (agarose); conditions: no cross-linking, complex not stable in gel; EMSA: 20 mM PIPES-NaOH pH 6.8, 150 mM NaCl, 0.8 mM MgCl2, 10% glycerol, 0.1 mg/ml BSA, 0.1 mg/ml poly-dI-dC, 25 C, gel 0.5x TBE pH 6.8; recombinant protein; protein details: GST; label: 5' Cy3, 3' Alexa Fluor 647
GST = GST (UniProt P08515); experiment: EMSA (agarose); conditions: GST-only control, same for CaMKIIa G4; EMSA: 20 mM PIPES-NaOH pH 6.8, 150 mM NaCl, 0.8 mM MgCl2, 10% glycerol, 0.1 mg/ml BSA, 0.1 mg/ml poly-dI-dC, 25 C, gel 0.5x TBE pH 6.8; recombinant protein; label: 5' Cy3, 3' Alexa Fluor 647

Row | Sequence | binding result (GST-GR WT (human) [1]) | binding result (GST-GR WT (human) [3]) | binding result (GST-GR WT (human) [4]) | other results
1 | GGGGAAAAGGGAGGGAUGGGAAAAAAAAAAAAAAAA [PSD-95 G4 dA16] | binds |  |  | 
2 | UGGGGGGGGCGGGUGGGAUGGGA [CaMKIIa G4] |  |  |  | binding result (GST-GR WT (human) [2]): binds
3 | GGGGAAAAGGGAGGGAUGGG [Cy3-PSD-Ax647] |  | binds | no binding | binding result (GST): no binding
4 | UGGGGGGGGCGGGUGGGAUGGGAAAAAAAAAAAAAAAAA [CaMKIIa G4 dA16] | binds |  |  | 
5 | UGGGGGGGGCGGGUGGGA [Cy3-CaMKII-Ax647] |  | binds | no binding | 
